Out of some 320,000 compounds screened, about 22,000 (6.9%) were called active. This list was built around the results that the source calls inconclusive (neither active nor inactive); the mix of calls is not that of the screen. The call rests on the fitted dose curve; in most records, active means well fitted inhibition curve with a large enough effect; inconclusive means small, poorly fitted or top-dose-only effect, or another doubt; inactive means no such curve, though single readings can be large or run the other way. Potencies of inconclusive entries are doubtful fits and often do not repeat.
Test: Primary qHTS for delayed death inhibitors of the malarial parasite plastid, 96 hour incubation
Settings: P. falciparum luciferase reporter growth; series mostly up to 28.7 µM
Outline: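 Two-generation exposure (96 h) targets delayed-death phenotype. Reporter parasites carrying integrated firefly luciferase, in red cells at 2% hematocrit and 0.05% parasitemia final, kept at 37 C, 5% CO2; luminescence loss indicates inhibition.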
For COc1ccc(NC(=O)C2COc3ccccc3O2)cc1 (centres undefined), the Potency was active: 1.17 µM.
For Cc1nc2ccccc2nc1OCc1cccc(Cl)c1, the Potency was inconclusive: 13.1 µM [inhibitor, single point].
In the case of O=C(Oc1ccccc1)c1cc2ccccc2oc1=O, the Potency is reported as “inactive”.
With O=C(NCc1cccnc1)C1CCCN(S(=O)(=O)c2cccc3nsnc23)C1 (centres undefined) the Potency was active: 10.4 µM.
In the case of CC(C)CCN1C(=O)c2ccc(C(=O)Nc3ccc(O)cc3C(=O)O)cc2C1=O, the Potency is reported as inconclusive: 11.7 µM [inhibitor, single point].
In the case of COc1ccc(C2SCCN2C(=S)Nc2ccc(F)cc2)cc1 (centres undefined), the Potency is reported as inconclusive: 10.4 µM [inhibitor, single point].
For Cc1cc(C)c(S(=O)(=O)c2ccccc2)c(OC(=O)c2c(F)cccc2Cl)n1, the Potency was inconclusive: 0.0185 µM [inhibitor, full curve, poor fit].
For Cc1ccc(C(=O)O)cc1S(=O)(=O)N1CCSCC1, the Potency was inconclusive: 13.1 µM [inhibitor, partial curve, poor fit].
With CC(C)c1ccc(NC(=S)NN(c2ccccc2)c2ccccc2)cc1 the Potency was inconclusive: 11.7 µM [inhibitor, single point].
For CCCC(=O)Nc1nn(CC(C)C)c2nc3cc(C)ccc3cc12, the Potency was inconclusive: 13.1 µM [inhibitor, single point].
With COc1c(C=O)cc2c3c1CCCN3CCC2 the Potency was inconclusive: 9.28 µM [inhibitor, single point].
In the case of O=C(c1[nH]ncc1-c1cccc(Br)c1)C1CO1 (centres undefined), the Potency is reported as inconclusive: 2.62 µM [inhibitor, partial curve, poor fit].
For COc1ccc(N=C2NC(=O)CS2)c([N+](=O)[O-])c1, the Potency was inconclusive: 4.65 µM [inhibitor, partial curve, poor fit].
In the case of Cc1ccc(C(=O)Nc2nc(-c3ccc(F)cc3)cs2)o1, the Potency is reported as “inactive”.
For CCCN(Cc1ccccc1)C(=O)Nc1ccc2c(c1)nnn2C, the Potency was “inactive”.
For O=C(Nc1ccc(N2CCCC2)c(Cl)c1)c1ccccc1[N+](=O)[O-], the Potency was inconclusive: 14.7 µM [inhibitor, single point].
With CCOc1ccc2c(=O)c(Oc3ccccc3OCC)coc2c1 the Potency was inconclusive: 18.5 µM [inhibitor, single point].
In the case of COc1cc(OC)cc(C(=O)NC2CCSC2=O)c1 (centres undefined), the Potency is reported as inconclusive: 5.86 µM [inhibitor, partial curve, poor fit].
For CCCn1c2ccccc2c2cnn(CC(=O)NCCCN3CCCC(C)C3)c(=O)c21 (centres undefined), the Potency was active: 14.7 µM.
In the case of O=C(/C=C/c1cccc(Cl)c1)NCc1ccncc1, the Potency is reported as inconclusive: 1.85 µM [inhibitor, partial curve, poor fit].
In the case of Cc1nnn(-c2nonc2N)c1C(=O)NNC(=O)c1ccc(Cl)c(Cl)c1, the Potency is reported as “inactive”.
With Cc1ccc2nsnc2c1NC(=O)COc1ccccc1 the Potency was inconclusive: 0.37 µM [inhibitor, full curve, poor fit].
In the case of C/C(=C\C(=O)c1ccccc1)NNC(=O)c1ccc(Cl)cc1, the Potency is reported as “inactive”.
With CC(C)NC(=O)NC(=O)CSc1nnc(COc2ccccc2F)n1C(C)C1CC2CCC1C2 (centres undefined) the Potency was inconclusive: 0.828 µM [inhibitor, partial curve, poor fit].
In the case of O=C(O)CCCC(=O)N1CCCC1, the Potency is reported as “inactive”.
In the case of CN(C)N1C(N)=C(C#N)C(c2cccnc2)C2=C1CCCC2=O (centres undefined), the Potency is reported as active: 13.1 µM.
For CC(C)(C)C(=O)Nc1nnc(SCC(=O)NCc2cccs2)s1, the Potency was inconclusive: 18.5 µM [inhibitor, single point].
In the case of Cc1ccc(C(=O)N2CCCC(CCC(=O)N3CCN(c4ccccn4)CC3)C2)cc1C (centres undefined), the Potency is reported as inconclusive: 10.4 µM [inhibitor, single point].
With O=C(/C=C/c1ccccc1)N1CCN(Cc2nc3ccccc3c(=O)[nH]2)CC1 the Potency was inconclusive: 4.15 µM [inhibitor, single point].
In the case of COc1ccccc1N1CCN(CCCCOc2cccc3ccccc23)CC1, the Potency is reported as inconclusive: 18.5 µM [inhibitor, single point].
In the case of O=C(CN1C(=O)NC2(CCCCC2)C1=O)N1CCN(S(=O)(=O)c2ccc(F)cc2)CC1, the Potency is reported as inconclusive: 18.5 µM [inhibitor, single point].
With CC(C)(C)C(=O)N1NC(=Nc2ccccc2)SC1(C)C the Potency was inconclusive: 20.8 µM [inhibitor, partial curve, poor fit].
With Cc1ccc(CN(CCO)CCO)cc1 the Potency was inconclusive: 18.5 µM [inhibitor, single point].
For O=C(c1ccc(Cl)cc1)N1CCN(c2cccc3[nH]ccc23)CC1, the Potency was inconclusive: 8.28 µM [inhibitor, partial curve].
With CCn1cc(C(=O)NCCc2ccccc2)c(=O)c2cc(F)c(N3CCN(C)CC3)cc21 the Potency was inconclusive: 16.5 µM [inhibitor, single point].
In the case of O=C(NCc1ccccc1)c1ccc(S(=O)(=O)N2CCCc3ccccc32)cc1, the Potency is reported as inconclusive: 4.15 µM [inhibitor, partial curve, poor fit].
In the case of C/C(CC(=O)Nc1cccnc1)=N\NC(=O)c1ccc([N+](=O)[O-])c(Cl)c1, the Potency is reported as “inactive”.
For CCOc1cc(S(=O)(=O)N2CCOCC2)ccc1F, the Potency was “inactive”.
With CCOCCCn1c(SCC(=O)N2CCOCC2)nc2ccccc2c1=O the Potency was inconclusive: 7.38 µM [inhibitor, partial curve].
In the case of COc1cccc(Nc2nnc(SCn3nnc4ccccc4c3=O)s2)c1, the Potency is reported as inconclusive: 9.28 µM [inhibitor, partial curve, poor fit].
With CCCNC(=O)CN(C1CCCCC1)S(C)(=O)=O the Potency was inconclusive: 5.86 µM [inhibitor, partial curve].
In the case of C=CCNC(=O)c1ccc(C2SCC(=O)N2Cc2ccco2)cc1 (centres undefined), the Potency is reported as inconclusive: 4.65 µM [inhibitor, partial curve, poor fit].
In the case of COc1ccc(CNC(=O)CNC(=O)N2CC(=O)Nc3ccccc32)cc1, the Potency is reported as inconclusive: 18.5 µM [inhibitor, single point].
With COC(=O)c1ccc(NC(=O)Nc2ccc(F)cc2)cc1 the Potency was inconclusive: 10.4 µM [inhibitor, single point].
For CC(=O)NC(c1ccco1)c1cc(Cl)c2ccc(N3CCCCC3)nc2c1O (centres undefined), the Potency was “inactive”.
In the case of CCCC(=O)NC(c1ccccc1Cl)c1ccc2cccnc2c1O (centres undefined), the Potency is reported as inconclusive: 5.22 µM [inhibitor, partial curve, poor fit].
For Cc1ccc(SCC(=O)Nc2cccc(S(=O)(=O)N3CCOCC3)c2)cc1C, the Potency was inconclusive: 10.4 µM [inhibitor, partial curve, poor fit].
For O=C(NCCCN1CCOCC1)c1cc(Cl)ccc1[N+](=O)[O-], the Potency was inconclusive: 11.7 µM [inhibitor, partial curve, poor fit].
With CC12CC(c3ccccc3O1)N(C(=O)c1ccc(Br)o1)C(=O)N2c1ccccc1 (centres undefined) the Potency was inconclusive: 10.4 µM [inhibitor, single point].
For CCOC(=O)COc1c(OC)cc(Cl)cc1C1Nc2ccccc2C(=O)N1c1ccccc1 (centres undefined), the Potency was inconclusive: 11.7 µM [inhibitor, partial curve, poor fit].
For CC(=O)Nc1ccc(C2=CC(=O)C[C@H](c3ccc(Cl)cc3)C2)cc1, the Potency was inconclusive: 18.5 µM [inhibitor, single point].
In the case of CC1CCN(CCC(=O)Nc2ccc(Cl)cc2)CC1, the Potency is reported as “inactive”.
With CCOc1ccc(CC2CC(=O)NC2=O)cc1 (centres undefined) the Potency was inconclusive: 13.1 µM [inhibitor, partial curve, poor fit].
With CCOc1ccc2c(c1)C(C)=CC(C)(C)N2S(=O)(=O)c1ccc(C)cc1 the Potency was inconclusive: 0.0026 µM [inhibitor, full curve, poor fit].
In the case of O=C(CN1CCCCC1)Nc1nc(-c2ccc(F)c(F)c2)cs1, the Potency is reported as “inactive”.
For CCOc1ccc2nc(-c3ccccc3)nc(SCC(=O)Nc3ncc(C)s3)c2c1, the Potency was inconclusive: 2.62 µM [inhibitor, full curve, poor fit].
For C/C(=N\Nc1cc(N2CCOCC2)nc(C)n1)c1ccc(F)cc1, the Potency was inconclusive: 18.5 µM [inhibitor, single point].
For COC(=O)c1ccccc1NC(=O)C1CC(c2ccc(F)cc2)=NO1 (centres undefined), the Potency was active: 10.4 µM.
In the case of CCC1CCCCN1CCNC(=O)CCS(=O)(=O)c1ccc(Br)cc1 (centres undefined), the Potency is reported as active: 3.29 µM.
For Cc1c(NCc2cc(Cl)ccc2O)c(=O)n(-c2ccccc2)n1C, the Potency was inconclusive: 10.4 µM [inhibitor, single point].
For CCCCCC1C/C(=N\O)C=C(C)C1C(=O)OC (centres undefined), the Potency was inconclusive: 23.3 µM [inhibitor, partial curve, poor fit].
In the case of CC(CNC(=O)CCC(=O)N1CCOc2ccccc21)c1ccccc1 (centres undefined), the Potency is reported as inconclusive: 9.28 µM [inhibitor, single point].
In the case of O=C(c1ccc(Cl)cc1)N1CCC(C(=O)N2CCN(c3ncccn3)CC2)CC1, the Potency is reported as inconclusive: 16.5 µM [inhibitor, single point].
With Cc1ccc(-c2nc3cc(C)ccc3o2)cc1 the Potency was “inactive”.
For Nc1cc2ccncc2c2ccccc12, the Potency was inconclusive: 0.0657 µM [inhibitor, full curve, poor fit].
With Cc1ccc(NC(=O)Cc2nnc(SCC(=O)Nc3nncs3)n2C)cc1 the Potency was “inactive”.
For CC(=O)C1(C)OC(N)=C(C#N)C(c2ccccc2)C1(C#N)C#N (centres undefined), the Potency was inconclusive: 4.15 µM [inhibitor, single point].
With CC(/C=C/c1ccc(N(C)C)cc1)=N\N=C(/N)SC1CC(=O)N(c2ccc(C(=O)O)cc2)C1=O (centres undefined) the Potency was “inactive”.
For N#Cc1c(NC(=O)COC(=O)c2ccc(O)cc2O)sc2c1CCC2, the Potency was inconclusive: 0.037 µM [inhibitor, full curve].

— PubChem BioAssay AID504834 (National Center for Advancing Translational Sciences (NCATS), 2011)
Potency means the concentration at half of the fitted maximal effect.
